Data reported in patent US20260125440A1, “INCRETIN ANALOGS AND USES THEREOF” (ELI LILLY AND COMPANY, priority 2019, published 2026).
At least one compound was matched to its structure with a doubt left. Marks after values point to notes of the source that are not given here. Numbered stars: 1 amine (or outer) side, 2 acyl side, 3 side chain; on linkers, the order of the positions; unused ones are H or OH. Square brackets hold non-standard residues; d marks the D form. Side chains are listed from the residue outwards. Peptide text beside a SMILES is read from it. * marks the point of attachment. C20 diacid = O=C(O)CCCCCCCCCCCCCCCCCCC(=O)*; αMePhe(2-F) = C[C@](N)(Cc1ccccc1F)C(=O)O; γGlu = O=C(O)[C@H](CCC(=O)[*:2])N[*:1]; 4Pal = N[C@@H](Cc1ccncc1)C(=O)O; Orn = NCCC[C@H](N)C(=O)O; AEEA = NCCOCCOCC(=O)O; Aib = CC(C)(N)C(=O)O

What was measured:
[1] = Insulin secretion during ivGTT in male Wistar rats; format: in vivo
Protocol: Methods: An intravenous glucose tolerance test (ivGTT) in Male Wistar rats is used to estimate insulinotropic potency of the Example compounds. A GLP-1R agonist, semaglutide, is used as a positive control. […] Semaglutide is used as positive control in connection with each run of Example compounds ([…] dose).
A time 0 blood sample is collected into EDTA tubes after which glucose is administered ([…], 5 mL/kg). Blood samples are collected for glucose and insulin levels at time 2, 4, 6, 10, 20 and 30 min post intravenous administration of glucose. Plasma insulin is determined using an electrochemiluminescence assay (Meso Scale; Rockville, MD).
Statistical analysis is performed using JMP with a one-way ANOVA followed by Dunnett's comparison to the vehicle control.

[2] = Weight loss, metabolism and body composition in DIO C57/B16 mice; format: in vivo; details: for Δ Cholesterol / Δ Glucose / Δ Insulin / Δ Trigs: day 15 difference vs vehicle; for Fat Mass (%): difference in fat mass between days 0 and 15 (NMR); for Δ Body Weight (%): percent decrease between days 1 and 15, DIO mice
Protocol: Methods: To investigate the effects of the Example compounds on parameters such as weight loss, metabolism and body composition, the Example compounds are dosed to C57B16 DIO mice. These animals, although not diabetic, display insulin resistance and dyslipidemia, all characteristics of metabolic syndrome, after being placed on a high fat diet for 20 weeks.
Here, DIO male C57/B16 mice at 20 weeks old are maintained on a calorie-rich diet are used in the following studies. […] After a 3-week acclimation to the facility, which includes 1 week of vehicle acclimation dosing, the mice are randomized according to their body weight, so each experimental group of animals would have similar body weight.
All groups contain 6 mice. […] Body weight and food intake are measured daily throughout the study, including 1 day after last dose (Day 15).
Absolute changes in body weight are calculated by subtracting the body weight of the same animal prior to the first injection of molecule. On Days 0 and 15, total fat mass is measured by nuclear magnetic resonance (NMR) using an Echo Medical System (Houston, TX) instrument. On Day 15, metabolic parameters are measured using Accu-Chek® Aviva® Glucometers (Roche; Indianapolis, IN) or a Hitachi clinical blood analyzer (Roche, Indianapolis, IN). Plasma insulin is determined using an electrochemiluminescence assay (Meso Scale Discovery, Rockville, MD).
Data are presented as mean±t SEM of 6animals per group in Tables 7 and 8 below. Statistical analysis is performed using repeated measures ANOVA, followed by Dunneti's method for multiple comparisons. Significant differences are identified as * with p<0.05.

[3] = 0.15625 nmol/kg SQ daily, DIO mice
[4] = 0.625 nmol/kg SQ daily, DIO mice

CC[C@H](C)[C@H](NC(=O)[C@H](Cc1ccccc1)NC(=O)[C@H](C)NC(=O)[C@H](Cc1ccncc1)NC(=O)[C@H](CCC(N)=O)NC(=O)[C@H](C)NC(=O)[C@H](CCCCNC(=O)COCCOCCNC(=O)CC[C@H](NC(=O)CCCCCCCCCCCCCCCCCCC(=O)O)C(=O)O)NC(=O)[C@H](CCCN)NC(=O)[C@H](CC(=O)O)NC(=O)[C@H](CC(C)C)NC(=O)[C@H](CC(C)C)NC(=O)[C@@H](NC(=O)[C@H](CO)NC(=O)[C@H](Cc1ccc(O)cc1)NC(=O)[C@H](CC(=O)O)NC(=O)[C@H](CO)NC(=O)[C@@H](NC(=O)[C@](C)(Cc1ccccc1F)NC(=O)[C@@H](NC(=O)CNC(=O)[C@H](CCC(N)=O)NC(=O)C(C)(C)NC(=O)[C@@H](N)Cc1ccc(O)cc1)[C@@H](C)O)[C@@H](C)O)[C@@H](C)CC)C(=O)N[C@@H](CCC(=O)O)C(=O)N[C@@H](Cc1ccc(O)cc1)C(=O)N[C@@H](CC(C)C)C(=O)N[C@@H](CC(C)C)C(=O)N[C@@H](CCC(=O)O)C(=O)NCC(=O)NCC(=O)N1CCC[C@H]1C(=O)N[C@@H](CO)C(=O)N[C@@H](CO)C(=O)NCC(=O)N[C@@H](CCC(=O)O)C(=O)N1CCC[C@H]1C(=O)N1CCC[C@H]1C(=O)N1CCC[C@H]1C(=O)N[C@@H](CCC(=O)O)C(N)=O [Example 1] (H-Y[Aib]QGT[αMePhe(2-F)]TSDYSILLD[Orn]K([AEEA-γGlu-C20 diacid])AQ[4Pal]AFIEYLLEGGPSSGEPPPE-NH2)
AUC30 min of Insulin After Bolus IV Glucose ([1]; 0.1 nmol/kg SQ 16 hr prior to glucose): 36.1
AUC30 min of Insulin After Bolus IV Glucose ([1]; 0.3 nmol/kg SQ 16 hr prior to glucose): 45.5
AUC30 min of Insulin After Bolus IV Glucose ([1]; 1 nmol/kg SQ 16 hr prior to glucose): 70.4
AUC30 min of Insulin After Bolus IV Glucose ([1]; 3 nmol/kg SQ 16 hr prior to glucose): 115.7
AUC30 min of Insulin After Bolus IV Glucose ([1]; 10 nmol/kg SQ 16 hr prior to glucose): 145.9
AUC30 min of Insulin After Bolus IV Glucose ([1]; 30 nmol/kg SQ 16 hr prior to glucose): 134.5
Δ Body Weight ([2]; 0.15625 nmol/kg SQ daily 14 days, day 15, difference vs vehicle, DIO mice): -1.20 ± 0.15 g
Δ Cholesterol [2, 3]: -14.33 ± 4.37 mg/dL
Δ Glucose [2, 3]: -18.58 ± 1.04 mg/dL
Δ Insulin [2, 3]: -4.48 ± 1.70 ng/mL
Δ Trigs [2, 3]: -27.83 ± 0.44 mg/dL
Fat Mass (%) [2, 3]: −2.44 ± 0.63%
Δ Body Weight (%) ([2]; 0.15625 nmol/kg SQ daily): −4.31 ± 0.75%
Δ Body Weight (g) ([2]; 0.625 nmol/kg SQ daily 14 days, day 15, difference vs vehicle, DIO mice): −4.37 ± 0.08* g
Δ Cholesterol [2, 4]: -39.17 ± 0.08 mg/dL
Δ Glucose [2, 4]: −24.42 ± 4.44* mg/dL
Δ Insulin [2, 4]: -6.03 ± 0.94 ng/mL
Δ Trigs [2, 4]: 15.33 ± 2.75 mg/dL
Fat Mass (%) [2, 4]: −7.38 ± 1.05* %
Δ Body Weight (%) ([2]; 0.625 nmol/kg SQ daily): −11.40 ± 0.92* %
Δ Body Weight (g) ([2]; 2.5 nmol/kg SQ daily 14 days, day 15, difference vs vehicle, DIO mice): −10.42 ± 1.40* g
Δ Cholesterol ([2]; 2.5 nmol/kg SQ daily, DIO mice): −118.17 ± 1.57* mg/dL
Δ Glucose ([2]; 2.5 nmol/kg SQ daily, DIO mice): -14.67 ± 0.77 mg/dL
Δ Insulin ([2]; 2.5 nmol/kg SQ daily, DIO mice): -10.13 ± 4.21 ng/mL
Δ Trigs ([2]; 2.5 nmol/kg SQ daily, DIO mice): -2.83 ± 4.13 mg/dL
Fat Mass (%) ([2]; 2.5 nmol/kg SQ daily, DIO mice): −17.05 ± 2.47* %
Δ Body Weight (%) ([2]; 2.5 nmol/kg SQ daily): −24.43 ± 3.84* %
Δ Body Weight (g) ([2]; 10 nmol/kg SQ daily 14 days, day 15, difference vs vehicle, DIO mice): −18.97 ± 0.81* g
Δ Cholesterol ([2]; 10 nmol/kg SQ daily, DIO mice): −164.00 ± 1.85* mg/dL
Δ Glucose ([2]; 10 nmol/kg SQ daily, DIO mice): −35.08 ± 1.47* mg/dL
Δ Insulin ([2]; 10 nmol/kg SQ daily, DIO mice): −11.14 ± 4.41* ng/mL
Δ Trigs ([2]; 10 nmol/kg SQ daily, DIO mice): -43.00 ± 0.50 mg/dL
Fat Mass (%) ([2]; 10 nmol/kg SQ daily, DIO mice): −30.07 ± 1.69* %
Δ Body Weight (%) ([2]; 10 nmol/kg SQ daily): −43.71 ± 2.32* %
Δ Body Weight (g) ([2]; 20 nmol/kg SQ daily 14 days, day 15, difference vs vehicle, DIO mice): −21.30 ± 0.94* g
Δ Cholesterol ([2]; 20 nmol/kg SQ daily, DIO mice): −179.17 ± 7.73* mg/dL
Δ Glucose ([2]; 20 nmol/kg SQ daily, DIO mice): −56.00 ± 2.12* mg/dL
Δ Insulin ([2]; 20 nmol/kg SQ daily, DIO mice): −11.40 ± 4.55* ng/mL
Δ Trigs ([2]; 20 nmol/kg SQ daily, DIO mice): −52.50 ± 3.95* mg/dL
Fat Mass (%) ([2]; 20 nmol/kg SQ daily, DIO mice): −32.15 ± 1.93* %
Δ Body Weight (%) ([2]; 20 nmol/kg SQ daily): −48.88 ± 2.00* %
